In article PMC7363672:
No constants are given. Whether binding was seen depends on the method and setting. Binding seen in cells or lysates may run through a third protein. Some results given as binding are weak or reduced against the parent protein; the word gives no strength. Where a sequence is shown, tags or fusion partners need not be part of it.

Target: T1, Rad5 protein tagged with FLAG epitope (S. cerevisiae) (UniProt P32849)
T1 sequence: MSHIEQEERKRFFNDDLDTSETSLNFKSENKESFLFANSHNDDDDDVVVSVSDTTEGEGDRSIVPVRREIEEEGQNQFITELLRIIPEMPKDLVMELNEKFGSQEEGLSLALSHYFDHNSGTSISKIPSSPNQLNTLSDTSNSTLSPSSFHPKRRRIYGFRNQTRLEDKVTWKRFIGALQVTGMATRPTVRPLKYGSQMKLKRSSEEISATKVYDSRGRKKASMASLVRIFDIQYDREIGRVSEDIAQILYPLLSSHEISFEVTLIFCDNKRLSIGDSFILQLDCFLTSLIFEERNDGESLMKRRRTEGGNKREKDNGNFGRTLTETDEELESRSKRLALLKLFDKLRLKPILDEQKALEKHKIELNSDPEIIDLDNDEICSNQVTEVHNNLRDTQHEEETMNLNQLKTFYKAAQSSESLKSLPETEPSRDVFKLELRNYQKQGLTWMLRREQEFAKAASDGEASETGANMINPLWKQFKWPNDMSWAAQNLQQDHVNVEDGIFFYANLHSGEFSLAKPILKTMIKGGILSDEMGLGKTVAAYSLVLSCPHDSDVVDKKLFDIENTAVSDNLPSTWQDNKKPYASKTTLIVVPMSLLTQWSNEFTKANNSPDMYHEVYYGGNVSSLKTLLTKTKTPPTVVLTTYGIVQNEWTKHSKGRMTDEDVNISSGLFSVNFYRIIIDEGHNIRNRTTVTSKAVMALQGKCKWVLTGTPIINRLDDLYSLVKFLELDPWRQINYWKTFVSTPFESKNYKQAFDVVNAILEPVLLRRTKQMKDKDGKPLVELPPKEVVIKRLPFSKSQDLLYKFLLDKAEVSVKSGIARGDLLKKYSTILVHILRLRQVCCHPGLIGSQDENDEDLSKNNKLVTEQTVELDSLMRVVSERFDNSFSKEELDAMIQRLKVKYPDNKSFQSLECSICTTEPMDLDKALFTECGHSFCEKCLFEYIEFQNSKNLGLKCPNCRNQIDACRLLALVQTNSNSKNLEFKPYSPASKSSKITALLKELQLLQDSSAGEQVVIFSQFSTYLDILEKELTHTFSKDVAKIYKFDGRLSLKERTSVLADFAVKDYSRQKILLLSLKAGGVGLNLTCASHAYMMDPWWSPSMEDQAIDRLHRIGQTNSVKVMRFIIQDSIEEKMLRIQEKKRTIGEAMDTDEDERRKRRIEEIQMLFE
Assay: co-IP; whole yeast cell extracts (2 mg protein, RIPA lysis buffer: 25 mM Tris-HCl pH 7.6, 150 mM NaCl, 1% NP-40, 1 mM EDTA) of strains DGY19 and BYRev1-ProA-His7 incubated with anti-FLAG affinity gel overnight at 4 °C; Rev1-ProA detected with PAP antibody, Rad5 with anti-FLAG

binding: binds
B1: Rev1 C-terminally tagged with a TEV-ProA-His7 epitope (protein, UniProt P12689 1-985)
chain: MGEHGGLVDLLDSDLEYSINRETPDKNNCLSQQSVNDSHLTAKTGGLNARSFLSTLSDDSLIEYVNQLSQTNKNNSNPTAGTLRFTTKNISCDELHADLGGGEDSPIARSVIEIQESDSNGDDVKKNTVYTREAYFHEKAHGQTLQDQILKDQYKDQISSQSSKIFKNCVIYINGYTKPGRLQLHEMIVLHGGKFLHYLSSKKTVTHIVASNLPLKKRIEFANYKVVSPDWIVDSVKEARLLPWQNYSLTSKLDEQQKKLDNCKTVNSIPLPSETSLHKGSKCVGSALLPVEQQSPVNLNNLEAKRIVACDDPDFLTSYFAHSRLHHLSAWKANLKDKFLNENIHKYTKITDKDTYIIFHIDFDCFFATVAYLCRSSSFSACDFKRDPIVVCHGTKNSDIASCNYVARSYGIKNGMWVSQAEKMLPNGIKLISLPYTFEQFQLKSEAFYSTLKRLNIFNLILPISIDEAVCVRIIPDNIHNTNTLNARLCEEIRQEIFQGTNGCTVSIGCSDSLVLARLALKMAKPNGYNITFKSNLSEEFWSSFKLDDLPGVGHSTLSRLESTFDSPHSLNDLRKRYTLDALKASVGSKLGMKIHLALQGQDDEESLKILYDPKEVLQRKSLSIDINWGIRFKNITQVDLFIERGCQYLLEKLNEINKTTSQITLKLMRRCKDAPIEPPKYMGMGRCDSFSRSSRLGIPTNEFGIIATEMKSLYRTLGCPPMELRGLALQFNKLVDVGPDNNQLKLRLPFKTIVTNRAFEALPEDVKNDINNEFEKRNYKRKESGLTSNSLSSKKKGFAISRLEVNDLPSTMEEQFMNELPTQIRAEVRHDLRIQKKIQQTKLGNLQEKIKRREESLQNEKNHFMGQNSIFQPIKFQNLTRFKKICQLVKQWVAETLGDGGPHEKDVKLFVKYLIKLCDSNRVHLVLHLSNLISRELNLCAFLNQDHSGFQTWERILLNDIIPLLNRNKHTYQTVRKLDMDFEV
